# According to article PMC8931191:
# By UniProt entry, the sequences of proteins in these tests, tags left out.
# UniProt Q8JZL2: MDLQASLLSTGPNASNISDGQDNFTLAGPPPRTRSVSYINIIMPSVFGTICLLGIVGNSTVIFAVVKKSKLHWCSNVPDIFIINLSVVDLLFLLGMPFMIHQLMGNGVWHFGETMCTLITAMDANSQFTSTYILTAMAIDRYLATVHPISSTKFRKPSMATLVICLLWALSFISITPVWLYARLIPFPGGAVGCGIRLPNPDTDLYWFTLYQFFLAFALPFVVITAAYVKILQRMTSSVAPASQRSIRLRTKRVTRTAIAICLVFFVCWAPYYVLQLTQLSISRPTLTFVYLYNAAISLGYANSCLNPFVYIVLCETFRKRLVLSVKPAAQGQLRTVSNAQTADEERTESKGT
# These are yes or no findings as the source states them, for the method shown. In cells and extracts the contact can be indirect. Some entries that bind do so weakly or less than the wild type. Sequences can lack the tags named with a protein.
# Tests used:
# [1] = target: 3HA-MCHR1 (melanin-concentrating hormone receptor 1) (mouse) (UniProt Q8JZL2); assay: co-IP; HEK293T cells co-transfected with 3HA-MCHR1 and a 2Flag-MRAP construct; extracts 24-36 h after transfection incubated with mouse anti-HA or anti-Flag antibody overnight at 4°C, protein A+G beads 4 h at 4°C, three washes; MRAP1/MRAP2 detected with anti-FLAG in MCHR1 immunoprecipitates
# [2] = target: MCHR1-F1 (mouse) (UniProt Q8JZL2); assay: split reporter; BiFC in HEK293T cells co-transfected with MCHR1-F1 (YFP-F1) and MRAP1-Flag-F2 or MRAP2-Flag-F2 (YFP-F2); cells fixed with 4% PFA, confocal microscopy
binding [1],binding [2],Binder
binds,–,"2Flag-MRAP2 (melanocortin receptor accessory protein 2), wild type (protein, UniProt D3Z1Q2 1-207) MEMSAQRLASNRTSPQSPSNSDYTWEYEYYEIGPVSFEGLKAHKYSIVIGFWVGLAVFVIFMFFVLTLLTKTGAPHQDNAESSERRFRMNSFVSDFGKPLESDKVFSRQGNEESRSLFHCYINEVEHLDRVKVCHQTTAIDSDVHLQEASRSSGRPEEELARFMKFDIPNFVNTEQSSFGEDDLLISEAPVLLENKPVSQTSRIDLD"
–,binds,"MRAP2-Flag-F2 (protein, UniProt D3Z1Q2 1-207) MEMSAQRLASNRTSPQSPSNSDYTWEYEYYEIGPVSFEGLKAHKYSIVIGFWVGLAVFVIFMFFVLTLLTKTGAPHQDNAESSERRFRMNSFVSDFGKPLESDKVFSRQGNEESRSLFHCYINEVEHLDRVKVCHQTTAIDSDVHLQEASRSSGRPEEELARFMKFDIPNFVNTEQSSFGEDDLLISEAPVLLENKPVSQTSRIDLD"
binds,–,"2Flag-MRAP2 Δ26–35 (protein, UniProt D3Z1Q2) MEMSAQRLASNRTSPQSPSNSDYTWSFEGLKAHKYSIVIGFWVGLAVFVIFMFFVLTLLTKTGAPHQDNAESSERRFRMNSFVSDFGKPLESDKVFSRQGNEESRSLFHCYINEVEHLDRVKVCHQTTAIDSDVHLQEASRSSGRPEEELARFMKFDIPNFVNTEQSSFGEDDLLISEAPVLLENKPVSQTSRIDLD"
binds,–,"2Flag-MRAP2 Δ36–45 (protein, UniProt D3Z1Q2) MEMSAQRLASNRTSPQSPSNSDYTWEYEYYEIGPVSIVIGFWVGLAVFVIFMFFVLTLLTKTGAPHQDNAESSERRFRMNSFVSDFGKPLESDKVFSRQGNEESRSLFHCYINEVEHLDRVKVCHQTTAIDSDVHLQEASRSSGRPEEELARFMKFDIPNFVNTEQSSFGEDDLLISEAPVLLENKPVSQTSRIDLD"
binds,–,"2Flag-MRAP2 Δ12–25 (protein, UniProt D3Z1Q2) MEMSAQRLASNEYEYYEIGPVSFEGLKAHKYSIVIGFWVGLAVFVIFMFFVLTLLTKTGAPHQDNAESSERRFRMNSFVSDFGKPLESDKVFSRQGNEESRSLFHCYINEVEHLDRVKVCHQTTAIDSDVHLQEASRSSGRPEEELARFMKFDIPNFVNTEQSSFGEDDLLISEAPVLLENKPVSQTSRIDLD"
binds,–,"2Flag-MRAP2 Δ4–11 (protein, UniProt D3Z1Q2) MEMRTSPQSPSNSDYTWEYEYYEIGPVSFEGLKAHKYSIVIGFWVGLAVFVIFMFFVLTLLTKTGAPHQDNAESSERRFRMNSFVSDFGKPLESDKVFSRQGNEESRSLFHCYINEVEHLDRVKVCHQTTAIDSDVHLQEASRSSGRPEEELARFMKFDIPNFVNTEQSSFGEDDLLISEAPVLLENKPVSQTSRIDLD"
